Here are results for two compounds from patent publication US20050194561A1, “Anionic-sweetener-based ionic liquids and methods of use thereof” (University of South Alabama, priority 2004, published 2005).

For the series, the system named is {Rh}^+. Nature of the series: Anion competition equilibrium for {Rh}+ (trans-Rh(PPh3)2(CO)X) in CDCl3 by 19F and/or 31P NMR.
The mark [1] stands for this setting: Z=TFA, eq. 1 (X=Sac) or eq. 2 (X=Ace).

In the case of `CC1=CC(=O)[N]([Rh](=[C]=O)([PH](c2ccccc2)(c2ccccc2)c2ccccc2)[PH](c2ccccc2)(c2ccccc2)c2ccccc2)S(=O)(=O)O1` [{Rh}Ace], the “K, equilibrium {Rh}X + [N(PPh3)2]Z = {Rh}Z + [N(PPh3)2]X” value under setting [1] is 1.1.

As to `O=[C]=[Rh]([N]1C(=O)c2ccccc2S1(=O)=O)([PH](c1ccccc1)(c1ccccc1)c1ccccc1)[PH](c1ccccc1)(c1ccccc1)c1ccccc1` [{Rh}Sac], the “K, equilibrium {Rh}X + [N(PPh3)2]Z = {Rh}Z + [N(PPh3)2]X” value was 31 (Z=3-FC6H4CO2, eq. 1); 99 (Z=CH3CO2, eq. 1); 0.091 under setting [1].
